Data as given in PubChem BioAssay AID1259254 (NCATS, 2017).
This is an unselected part of about 59,000 deposited reagents. About 1,550 of them (2.6%) count as active. 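G2 share is only a proxy for re-replication; each gene was hit by three separate siRNAs, and active genes were retested.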 Reagents against one gene are numbered here. Not all columns of the deposit are shown. Reagent sequences are not shown. Not given: the amount of reagent.

- Aim: 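Finding genes that stop cells copying their DNA twice in one cycle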 (primary screen)
- Cell system: human HCT116 colorectal cancer cells
- Reagents: single siRNA against human genes
- Time to read-out: 3 days
- Read-out: 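Nuclei stained with Hoechst and imaged; cell-cycle phase assigned by DNA content; G2 share scaled per plate, non-targeting siRNA 0%, GMNN siRNA 100%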
- Scale: G2 robust z-score: higher = more G2 cells, more excess DNA replication
- Hit rule: 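Active siRNAs have a G2 robust z of 5 or more median absolute deviations over the median, which in these data means about 38% or higher of GMNN control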

After knock-down of SETP4 (SET pseudogene 4) #1, the screen gave G2 robust z-score -0.434; inactive.
Knock-down of SETP4 (SET pseudogene 4) #2 gave: G2 robust z-score 5.19; active.
Against SETP4 (SET pseudogene 4) #3 the deposit lists G2 robust z-score -0.57; inactive.
For CRCP (CGRP receptor component) #1, the entry reads G2 robust z-score -0.126; inactive.
With knock-down of CRCP (CGRP receptor component) #2, the screen gave G2 robust z-score -1.34; inactive.
CRCP (CGRP receptor component) #3 gave G2 robust z-score -1.12; inactive.
PDK1 (pyruvate dehydrogenase kinase 1) #1 scored G2 robust z-score -1.31; inactive.
After knock-down of PDK1 (pyruvate dehydrogenase kinase 1) #2 the results were G2 robust z-score -1.12; inactive.
For PDK1 (pyruvate dehydrogenase kinase 1) #3, the values are G2 robust z-score -1.6; inactive.
Against ZBED2 (zinc finger BED-type containing 2) #1 the deposit lists G2 robust z-score 4.88; inactive.
With knock-down of ZBED2 (zinc finger BED-type containing 2) #2, the screen gave G2 robust z-score -1.25; inactive.
After knock-down of ZBED2 (zinc finger BED-type containing 2) #3, the screen gave G2 robust z-score -0.592; inactive.

Hits (from the list above):
SETP4 (SET pseudogene 4) #2 — G2 robust z-score = 5.19; Outcome = active
